This note sets out measurements from the supplement of paper PMC12819154, “High-throughput peptide-centric local stability assay extends protein–ligand identification to membrane proteins, tissues and bacteria” (Nature Structural & Molecular Biology, 2025).

Sequences of proteins named here, by UniProt entry; tags and fusion partners are left off. A change or cut given only in a name is not applied to a line headed by its entry.
UniProt Q14679: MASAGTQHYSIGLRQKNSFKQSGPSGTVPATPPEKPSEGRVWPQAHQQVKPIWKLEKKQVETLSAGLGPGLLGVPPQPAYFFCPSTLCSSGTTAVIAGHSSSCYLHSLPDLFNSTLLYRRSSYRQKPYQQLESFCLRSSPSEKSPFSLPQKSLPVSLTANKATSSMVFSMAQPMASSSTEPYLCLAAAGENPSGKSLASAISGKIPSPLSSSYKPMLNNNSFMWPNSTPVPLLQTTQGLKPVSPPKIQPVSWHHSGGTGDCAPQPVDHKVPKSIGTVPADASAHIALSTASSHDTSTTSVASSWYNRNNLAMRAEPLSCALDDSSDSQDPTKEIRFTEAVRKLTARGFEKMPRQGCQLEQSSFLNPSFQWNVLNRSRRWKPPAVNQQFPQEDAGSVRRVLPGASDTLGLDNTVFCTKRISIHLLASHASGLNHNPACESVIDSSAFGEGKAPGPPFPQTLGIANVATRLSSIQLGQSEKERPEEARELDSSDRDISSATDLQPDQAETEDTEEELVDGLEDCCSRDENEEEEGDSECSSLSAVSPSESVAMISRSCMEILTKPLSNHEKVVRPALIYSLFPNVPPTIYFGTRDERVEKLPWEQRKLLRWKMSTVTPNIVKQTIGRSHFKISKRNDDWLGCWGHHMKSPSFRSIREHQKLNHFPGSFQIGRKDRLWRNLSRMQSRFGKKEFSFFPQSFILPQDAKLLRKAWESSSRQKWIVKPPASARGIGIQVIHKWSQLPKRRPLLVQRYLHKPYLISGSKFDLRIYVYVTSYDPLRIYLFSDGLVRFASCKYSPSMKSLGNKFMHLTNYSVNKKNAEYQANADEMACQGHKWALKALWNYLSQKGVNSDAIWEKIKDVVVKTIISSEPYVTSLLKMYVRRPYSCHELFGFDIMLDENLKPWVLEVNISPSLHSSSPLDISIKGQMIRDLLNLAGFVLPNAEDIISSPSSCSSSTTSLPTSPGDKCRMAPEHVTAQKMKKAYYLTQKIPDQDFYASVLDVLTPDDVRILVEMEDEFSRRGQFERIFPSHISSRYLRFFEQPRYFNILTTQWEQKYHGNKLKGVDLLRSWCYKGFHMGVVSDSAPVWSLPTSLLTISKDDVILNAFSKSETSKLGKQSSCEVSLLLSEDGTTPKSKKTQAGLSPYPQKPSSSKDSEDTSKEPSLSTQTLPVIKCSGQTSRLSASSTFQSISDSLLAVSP
UniProt Q13322: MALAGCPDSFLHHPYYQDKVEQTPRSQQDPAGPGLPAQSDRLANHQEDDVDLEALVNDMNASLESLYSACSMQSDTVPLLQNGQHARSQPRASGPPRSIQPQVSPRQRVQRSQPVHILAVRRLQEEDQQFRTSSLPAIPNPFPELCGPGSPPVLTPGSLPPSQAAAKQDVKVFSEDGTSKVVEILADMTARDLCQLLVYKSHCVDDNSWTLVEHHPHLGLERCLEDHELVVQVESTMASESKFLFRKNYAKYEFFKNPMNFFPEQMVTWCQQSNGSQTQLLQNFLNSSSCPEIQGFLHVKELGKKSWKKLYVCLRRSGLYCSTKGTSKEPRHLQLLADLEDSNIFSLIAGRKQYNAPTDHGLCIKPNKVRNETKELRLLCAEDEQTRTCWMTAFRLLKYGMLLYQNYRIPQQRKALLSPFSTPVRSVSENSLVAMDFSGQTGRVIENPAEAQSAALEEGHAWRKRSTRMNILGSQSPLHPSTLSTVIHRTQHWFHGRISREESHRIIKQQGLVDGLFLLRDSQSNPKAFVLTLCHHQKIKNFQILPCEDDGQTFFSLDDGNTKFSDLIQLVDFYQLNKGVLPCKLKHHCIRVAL
UniProt Q13283, whole entry, looked up: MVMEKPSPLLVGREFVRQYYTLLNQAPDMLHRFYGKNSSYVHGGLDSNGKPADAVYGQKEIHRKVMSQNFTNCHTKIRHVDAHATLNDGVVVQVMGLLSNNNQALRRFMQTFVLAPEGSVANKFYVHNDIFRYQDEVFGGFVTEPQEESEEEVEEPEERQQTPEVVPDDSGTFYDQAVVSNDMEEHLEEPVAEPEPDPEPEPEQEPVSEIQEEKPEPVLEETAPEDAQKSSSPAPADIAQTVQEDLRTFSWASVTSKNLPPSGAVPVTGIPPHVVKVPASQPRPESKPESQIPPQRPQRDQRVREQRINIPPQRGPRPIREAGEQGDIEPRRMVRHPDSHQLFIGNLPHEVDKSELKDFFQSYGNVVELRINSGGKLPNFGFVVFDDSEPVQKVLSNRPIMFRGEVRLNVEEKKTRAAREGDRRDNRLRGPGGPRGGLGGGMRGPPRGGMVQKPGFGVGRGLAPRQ
UniProt Q14149: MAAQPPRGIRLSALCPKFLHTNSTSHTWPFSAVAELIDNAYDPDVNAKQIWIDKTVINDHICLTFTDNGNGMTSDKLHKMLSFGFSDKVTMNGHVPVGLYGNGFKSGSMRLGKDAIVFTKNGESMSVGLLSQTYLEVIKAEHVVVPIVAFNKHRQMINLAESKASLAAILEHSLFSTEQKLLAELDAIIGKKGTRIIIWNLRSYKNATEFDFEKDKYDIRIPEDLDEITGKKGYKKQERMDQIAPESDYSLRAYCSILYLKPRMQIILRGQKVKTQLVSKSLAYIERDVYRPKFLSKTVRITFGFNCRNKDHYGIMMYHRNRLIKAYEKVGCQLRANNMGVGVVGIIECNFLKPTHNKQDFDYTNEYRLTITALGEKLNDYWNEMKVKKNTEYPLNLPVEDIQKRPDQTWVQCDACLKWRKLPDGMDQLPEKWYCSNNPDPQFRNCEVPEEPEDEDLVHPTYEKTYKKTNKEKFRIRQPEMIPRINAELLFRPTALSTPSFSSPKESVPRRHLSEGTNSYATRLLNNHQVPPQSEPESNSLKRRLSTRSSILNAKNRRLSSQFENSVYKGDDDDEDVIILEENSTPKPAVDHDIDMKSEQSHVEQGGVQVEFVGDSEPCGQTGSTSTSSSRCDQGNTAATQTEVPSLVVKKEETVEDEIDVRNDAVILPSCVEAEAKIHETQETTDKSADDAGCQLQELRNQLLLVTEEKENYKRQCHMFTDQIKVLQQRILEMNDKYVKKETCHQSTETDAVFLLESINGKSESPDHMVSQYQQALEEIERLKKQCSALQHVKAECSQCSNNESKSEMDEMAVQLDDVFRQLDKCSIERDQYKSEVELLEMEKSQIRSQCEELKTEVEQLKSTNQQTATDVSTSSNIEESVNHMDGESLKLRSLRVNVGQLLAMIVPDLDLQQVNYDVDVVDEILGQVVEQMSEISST
UniProt Q14693: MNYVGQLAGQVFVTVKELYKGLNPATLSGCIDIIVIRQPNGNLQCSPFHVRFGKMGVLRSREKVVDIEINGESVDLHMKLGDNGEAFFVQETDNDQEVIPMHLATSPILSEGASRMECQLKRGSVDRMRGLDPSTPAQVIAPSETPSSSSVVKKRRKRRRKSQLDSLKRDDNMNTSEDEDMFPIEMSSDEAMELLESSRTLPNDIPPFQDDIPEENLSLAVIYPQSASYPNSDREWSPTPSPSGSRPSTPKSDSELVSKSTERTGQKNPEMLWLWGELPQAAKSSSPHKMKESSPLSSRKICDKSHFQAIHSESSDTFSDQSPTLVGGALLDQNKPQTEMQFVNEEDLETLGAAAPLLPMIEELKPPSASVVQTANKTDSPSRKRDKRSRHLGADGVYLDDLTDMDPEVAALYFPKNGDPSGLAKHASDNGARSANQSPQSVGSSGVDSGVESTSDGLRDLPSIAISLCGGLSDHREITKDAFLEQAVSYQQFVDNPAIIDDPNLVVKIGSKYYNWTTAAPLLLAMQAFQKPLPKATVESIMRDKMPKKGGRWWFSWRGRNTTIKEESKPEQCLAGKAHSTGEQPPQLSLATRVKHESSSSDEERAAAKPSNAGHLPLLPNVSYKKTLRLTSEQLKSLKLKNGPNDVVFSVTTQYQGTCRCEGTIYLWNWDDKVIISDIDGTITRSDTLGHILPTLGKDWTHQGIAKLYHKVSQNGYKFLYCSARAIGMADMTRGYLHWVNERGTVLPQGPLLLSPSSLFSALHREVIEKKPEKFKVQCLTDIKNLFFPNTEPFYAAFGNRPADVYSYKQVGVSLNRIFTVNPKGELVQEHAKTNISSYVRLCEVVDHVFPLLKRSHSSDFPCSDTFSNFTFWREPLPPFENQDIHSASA
UniProt Q13889: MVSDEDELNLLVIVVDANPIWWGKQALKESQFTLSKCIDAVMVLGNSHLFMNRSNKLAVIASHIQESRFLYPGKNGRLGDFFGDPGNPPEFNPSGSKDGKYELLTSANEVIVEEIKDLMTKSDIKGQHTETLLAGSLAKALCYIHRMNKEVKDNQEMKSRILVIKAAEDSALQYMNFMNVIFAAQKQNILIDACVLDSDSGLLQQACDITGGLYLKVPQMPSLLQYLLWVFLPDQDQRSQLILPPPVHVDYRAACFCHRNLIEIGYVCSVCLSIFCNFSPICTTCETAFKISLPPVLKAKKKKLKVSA
UniProt Q15011: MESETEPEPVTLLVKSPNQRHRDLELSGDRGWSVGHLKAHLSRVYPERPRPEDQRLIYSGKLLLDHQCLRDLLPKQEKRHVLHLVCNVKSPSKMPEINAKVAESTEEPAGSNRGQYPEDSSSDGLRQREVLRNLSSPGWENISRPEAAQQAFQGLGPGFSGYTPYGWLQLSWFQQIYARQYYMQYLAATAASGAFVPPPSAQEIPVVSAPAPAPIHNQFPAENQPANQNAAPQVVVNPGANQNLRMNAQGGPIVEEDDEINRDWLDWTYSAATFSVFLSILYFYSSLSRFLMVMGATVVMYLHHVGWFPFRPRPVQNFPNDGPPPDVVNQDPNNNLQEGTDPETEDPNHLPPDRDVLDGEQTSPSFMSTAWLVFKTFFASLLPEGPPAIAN
UniProt Q13469: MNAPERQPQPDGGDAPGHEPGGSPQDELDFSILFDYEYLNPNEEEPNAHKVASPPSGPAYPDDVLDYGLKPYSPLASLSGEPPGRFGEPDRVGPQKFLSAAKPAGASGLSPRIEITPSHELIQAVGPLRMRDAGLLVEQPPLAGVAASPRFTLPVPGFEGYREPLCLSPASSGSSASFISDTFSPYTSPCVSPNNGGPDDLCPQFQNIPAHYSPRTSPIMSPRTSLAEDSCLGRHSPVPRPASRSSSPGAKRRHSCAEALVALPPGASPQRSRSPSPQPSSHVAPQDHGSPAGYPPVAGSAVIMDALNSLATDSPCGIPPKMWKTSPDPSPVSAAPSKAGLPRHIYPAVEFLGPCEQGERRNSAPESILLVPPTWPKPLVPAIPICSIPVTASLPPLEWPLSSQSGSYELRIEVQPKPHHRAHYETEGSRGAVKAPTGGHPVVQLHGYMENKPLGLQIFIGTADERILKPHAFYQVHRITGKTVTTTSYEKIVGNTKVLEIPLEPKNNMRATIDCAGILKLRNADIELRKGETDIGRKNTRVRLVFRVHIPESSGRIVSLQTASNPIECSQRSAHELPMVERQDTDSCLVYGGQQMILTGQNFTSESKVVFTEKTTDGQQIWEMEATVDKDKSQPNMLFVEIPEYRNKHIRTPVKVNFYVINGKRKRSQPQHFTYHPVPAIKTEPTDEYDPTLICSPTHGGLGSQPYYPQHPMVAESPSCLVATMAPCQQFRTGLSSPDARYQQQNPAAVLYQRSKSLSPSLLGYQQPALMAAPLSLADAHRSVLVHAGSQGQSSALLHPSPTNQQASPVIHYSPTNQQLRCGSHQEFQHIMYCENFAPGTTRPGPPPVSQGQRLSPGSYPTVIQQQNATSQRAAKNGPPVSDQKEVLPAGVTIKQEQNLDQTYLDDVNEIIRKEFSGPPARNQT
UniProt Q14254: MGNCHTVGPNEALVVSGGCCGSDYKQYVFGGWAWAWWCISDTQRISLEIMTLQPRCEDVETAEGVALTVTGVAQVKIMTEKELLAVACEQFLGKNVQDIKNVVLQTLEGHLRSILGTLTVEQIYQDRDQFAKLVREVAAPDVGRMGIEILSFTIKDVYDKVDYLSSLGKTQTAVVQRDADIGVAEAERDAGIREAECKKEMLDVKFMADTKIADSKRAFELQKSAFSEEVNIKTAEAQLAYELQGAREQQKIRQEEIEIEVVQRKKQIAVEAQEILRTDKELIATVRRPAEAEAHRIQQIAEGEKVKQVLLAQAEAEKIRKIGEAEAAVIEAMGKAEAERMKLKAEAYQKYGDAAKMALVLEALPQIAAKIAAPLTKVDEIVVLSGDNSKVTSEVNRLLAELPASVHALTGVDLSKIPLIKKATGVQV
UniProt Q14847: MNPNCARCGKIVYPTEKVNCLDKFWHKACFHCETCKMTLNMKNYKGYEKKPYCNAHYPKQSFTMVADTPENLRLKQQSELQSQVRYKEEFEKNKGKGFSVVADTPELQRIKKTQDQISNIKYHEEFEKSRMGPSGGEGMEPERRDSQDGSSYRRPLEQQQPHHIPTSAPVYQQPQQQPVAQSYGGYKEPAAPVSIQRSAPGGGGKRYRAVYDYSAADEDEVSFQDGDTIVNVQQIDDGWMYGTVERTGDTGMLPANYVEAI

The other results are listed elsewhere or left out. Small differences around the control level are noise.

Compound in this experiment: CN[C@@H]1C[C@H]2O[C@@](C)([C@@H]1OC)n1c3ccccc3c3c4c(c5c6ccccc6n2c5c31)C(=O)NC4 [staurosporine]
The experiment in a line: log2 fold change of tryptic peptide abundance, ligand vs vehicle (limited proteolysis) (log2 ratio); higher = more trypsin-susceptible (destabilized). The following applies: ligand concentration: 20 uM; sample: K562 cleared lysate; digestion: 4 min, 22 C (HT-PELSA RT4min, Orbitrap Astral).
Consider “PDE3B (peptide sequence: SSSVSLTHHVGLR, peptide start residue: 493) (UniProt Q13370)”, for which the log2 fold change was 0.599. For “SQSTM1 (peptide sequence: VAALFPALRPGGFQAHYR, peptide start residue: 51) (UniProt Q13501)” the value was -0.2; for “TTLL4 (peptide sequence: MSTVTPNIVK, peptide start residue: 611) (UniProt Q14679)”, 0.415; for “UniProt Q15042 (peptide sequence: LEEIIHQITNVEALIAR, peptide start residue: 829)”, 0.835. For “GRB10 (peptide sequence: LLCAEDEQTR, peptide start residue: 378) (UniProt Q13322)” the value was 0.586; for “ITPK1 (peptide sequence: VFVVGESYTVVQRPSLK, peptide start residue: 200) (UniProt Q13572)”, 0.53; for “CASP8 (peptide sequence: QEPIKDALMLFQR, peptide start residue: 35) (UniProt Q14790)”, 0.358. The figure for “G3BP1 (peptide sequence: HPDSHQLFIGNLPHEVDK, peptide start residue: 336) (UniProt Q13283)” is 0.87. For the target “MORC3 (peptide sequence: IPEDLDEITGKK, peptide start residue: 221) (UniProt Q14149)”, the log2 fold change was -0.525. For “PPIL2 (peptide sequence: ETLQELYK, peptide start residue: 206) (UniProt Q13356)” the value was -0.215; for “KRR1 (peptide sequence: KTFDPYIIIR, peptide start residue: 106) (UniProt Q13601)”, 0.715; for “UniProt Q14159 (peptide sequence: HQCISYQK, peptide start residue: 282)”, 0.126. Regarding “LPIN1 (peptide sequence: QVGVSLNR, peptide start residue: 810) (UniProt Q14693)”, the log2 fold change stood at 0.299. With “AAMP (peptide sequence: AVVGYEDGTIR, peptide start residue: 230) (UniProt Q13685)”, the log2 fold change worked out at 0.185. “GTF2H3 (peptide sequence: AACFCHR, peptide start residue: 253) (UniProt Q13889)”: the log2 fold change was -0.205.

For “EFTUD2 (peptide sequence: CFAETPNKK, peptide start residue: 674) (UniProt Q15029)”, the log2 fold change came out at 0.426. For “HERPUD1 (peptide sequence: HVLHLVCNVK, peptide start residue: 80) (UniProt Q15011)” the value was -0.0872. For “MDC1 (peptide sequence: AHEVGAQGGPPVAQVEQDLPISR, peptide start residue: 620) (UniProt Q14676)” the value was -0.527; for “PUM1 (peptide sequence: IRPHIATLR, peptide start residue: 1144) (UniProt Q14671)”, 0.584; for “NFATC2 (peptide sequence: VHIPESSGR, peptide start residue: 548) (UniProt Q13469)”, 0.239. The figure for “VGLL4 (peptide sequence: MQTLPVASALSSHR, peptide start residue: 32) (UniProt Q14135)” is 0.341; for “FLOT2 (peptide sequence: QVLLAQAEAEKIR, peptide start residue: 308) (UniProt Q14254)” it is -0.255. As to “PWP1 (peptide sequence: IWDILGDRPSLVHSR, peptide start residue: 412) (UniProt Q13610)”, the log2 fold change came out at 0.491. For the target “UniProt Q147U1 (peptide sequence: THTGEKPYECK, peptide start residue: 272)”, the log2 fold change is -0.142. For “LASP1 (peptide sequence: DSQDGSSYR, peptide start residue: 145) (UniProt Q14847)” the value was -0.117.
